The other results are listed elsewhere or left out. Repeats in this data set agree poorly, so a single value says little.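 The cells were human embryonic kidney cells carrying a Renilla luciferase gene, driven by the HSV-TK promoter, on a plasmid put in briefly by transfection. This is the first-round screen of about ten thousand compounds, looking for ones that raise reporter output.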
These compounds were tested on HEK 293FT (assay: log relative Renilla luciferase luminescence (reporter expression vs reference, reference not stated) (log (base not stated)); higher = higher recombinant reporter expression). Settings: 10 µM; time after transfection 48 h.

**Q.** With C=C(C)[C@@H]1CC[C@@H](C)C[C@H]1O [Isopulegol] as the compound, how does the log read?
**A.** 0.0262

**Q.** Which log does the source give for O=C1C2CC3CC1CC(O)(C3)C2 [Idramantone] here?
**A.** 0.0267

**Q.** How did the log turn out when C=C1C(=O)O[C@@H]2C[C@@]3(C)CCC[C@H](C)[C@@]34O[C@H]4[C@H]12 [5-Alpha-Epoxyalantolactone] was run?
**A.** -0.136

**Q.** CCc1nnc(NS(=O)(=O)c2ccc(N)cc2)s1 [Sulfaethidole] was tested. Which log did it give?
**A.** -0.0478

**Q.** How did the log turn out when OCCN1CCN(CCCN2c3ccccc3Sc3ccc(C(F)(F)F)cc32)CC1 [Fluphenazine] was run?
**A.** 0.129

**Q.** How did the log turn out when CC(=O)O[C@]1(C(C)=O)CC[C@H]2[C@@H]3C[C@H](C)C4=CC(=O)CC[C@]4(C)[C@H]3CC[C@@]21C [Medroxyprogesone acetate] was run?
**A.** 0.102

**Q.** For CCN(CC)c1nc2ccccc2n2cnnc12, which log is on record?
**A.** -0.0949

**Q.** For O=C(O)c1ccc(NC2OC[C@@H](O)[C@H](O)[C@H]2O)cc1 (some centres undefined) [Benaxibine], which log is on record?
**A.** 0.00898

**Q.** CC(=O)CC(c1ccccc1)c1c(O)c2ccccc2oc1=O (centres undefined) [Warfarin] was tested. Which log did it give?
**A.** 0.0679

**Q.** C[C@]12CC[C@H]3[C@@H](CCC4=CC(=O)CC[C@@]43C)[C@@H]1CC[C@@H]2C(=O)COC(=O)CCc1ccccc1 [Cortexone phenylpropionate] was tested. Which log did it give?
**A.** -0.201

**Q.** How did the log turn out when CC(C(=O)O)c1ccc2c(c1)[nH]c1ccc(Cl)cc12 (centres undefined) [Carprofen] was run?
**A.** 0.119

**Q.** Which log does the source give for Cc1cc(O)c2c(c1)C(=O)c1cc(O)cc(O)c1C2=O [Emodin] here?
**A.** 0.0529

**Q.** How did the log turn out when COc1cc(NS(=O)(=O)c2ccc(NC(C)=O)cc2)nc(OC)n1 [Acetylsulfadimethoxine] was run?
**A.** 0.224

**Q.** CC1(C)C=Cc2c(ccc3c2OC[C@@H](c2ccc(O)cc2O)C3)O1 [Glabridin] was tested. Which log did it give?
**A.** -0.00831

— the supplement of paper PMC7024190
